Data from paper PMC4062820.
These are yes or no findings as the source states them, for the method shown. Some results given as binding are weak or reduced against the parent protein; the word gives no strength.

By UniProt entry, the sequences of proteins in these tests, tags left out.
UniProt P51608: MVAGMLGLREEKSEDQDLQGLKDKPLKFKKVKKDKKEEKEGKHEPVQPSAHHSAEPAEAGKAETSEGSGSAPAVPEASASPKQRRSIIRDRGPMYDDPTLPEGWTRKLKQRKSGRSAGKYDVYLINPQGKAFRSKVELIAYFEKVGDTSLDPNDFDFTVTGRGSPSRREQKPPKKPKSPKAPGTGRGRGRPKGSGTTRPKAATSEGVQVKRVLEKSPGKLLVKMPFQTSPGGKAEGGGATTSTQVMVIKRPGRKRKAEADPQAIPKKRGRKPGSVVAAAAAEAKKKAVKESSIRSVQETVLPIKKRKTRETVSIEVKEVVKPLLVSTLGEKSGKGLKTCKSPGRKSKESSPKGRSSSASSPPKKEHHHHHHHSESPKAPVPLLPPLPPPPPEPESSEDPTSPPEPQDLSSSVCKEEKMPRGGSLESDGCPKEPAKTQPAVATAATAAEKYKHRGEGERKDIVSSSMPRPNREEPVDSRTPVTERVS
UniProt O75530: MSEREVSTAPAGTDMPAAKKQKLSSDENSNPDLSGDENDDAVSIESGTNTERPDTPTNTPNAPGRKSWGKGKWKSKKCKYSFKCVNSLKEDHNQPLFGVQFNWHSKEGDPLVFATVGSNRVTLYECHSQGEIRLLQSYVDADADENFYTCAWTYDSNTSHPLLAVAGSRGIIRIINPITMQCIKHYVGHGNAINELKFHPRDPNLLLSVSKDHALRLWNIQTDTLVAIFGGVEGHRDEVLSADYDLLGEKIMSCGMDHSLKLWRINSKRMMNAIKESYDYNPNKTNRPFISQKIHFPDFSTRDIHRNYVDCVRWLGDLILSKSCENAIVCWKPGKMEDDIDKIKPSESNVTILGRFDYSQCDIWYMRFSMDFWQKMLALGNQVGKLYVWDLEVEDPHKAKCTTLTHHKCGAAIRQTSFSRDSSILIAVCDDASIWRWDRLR
UniProt Q96KQ7: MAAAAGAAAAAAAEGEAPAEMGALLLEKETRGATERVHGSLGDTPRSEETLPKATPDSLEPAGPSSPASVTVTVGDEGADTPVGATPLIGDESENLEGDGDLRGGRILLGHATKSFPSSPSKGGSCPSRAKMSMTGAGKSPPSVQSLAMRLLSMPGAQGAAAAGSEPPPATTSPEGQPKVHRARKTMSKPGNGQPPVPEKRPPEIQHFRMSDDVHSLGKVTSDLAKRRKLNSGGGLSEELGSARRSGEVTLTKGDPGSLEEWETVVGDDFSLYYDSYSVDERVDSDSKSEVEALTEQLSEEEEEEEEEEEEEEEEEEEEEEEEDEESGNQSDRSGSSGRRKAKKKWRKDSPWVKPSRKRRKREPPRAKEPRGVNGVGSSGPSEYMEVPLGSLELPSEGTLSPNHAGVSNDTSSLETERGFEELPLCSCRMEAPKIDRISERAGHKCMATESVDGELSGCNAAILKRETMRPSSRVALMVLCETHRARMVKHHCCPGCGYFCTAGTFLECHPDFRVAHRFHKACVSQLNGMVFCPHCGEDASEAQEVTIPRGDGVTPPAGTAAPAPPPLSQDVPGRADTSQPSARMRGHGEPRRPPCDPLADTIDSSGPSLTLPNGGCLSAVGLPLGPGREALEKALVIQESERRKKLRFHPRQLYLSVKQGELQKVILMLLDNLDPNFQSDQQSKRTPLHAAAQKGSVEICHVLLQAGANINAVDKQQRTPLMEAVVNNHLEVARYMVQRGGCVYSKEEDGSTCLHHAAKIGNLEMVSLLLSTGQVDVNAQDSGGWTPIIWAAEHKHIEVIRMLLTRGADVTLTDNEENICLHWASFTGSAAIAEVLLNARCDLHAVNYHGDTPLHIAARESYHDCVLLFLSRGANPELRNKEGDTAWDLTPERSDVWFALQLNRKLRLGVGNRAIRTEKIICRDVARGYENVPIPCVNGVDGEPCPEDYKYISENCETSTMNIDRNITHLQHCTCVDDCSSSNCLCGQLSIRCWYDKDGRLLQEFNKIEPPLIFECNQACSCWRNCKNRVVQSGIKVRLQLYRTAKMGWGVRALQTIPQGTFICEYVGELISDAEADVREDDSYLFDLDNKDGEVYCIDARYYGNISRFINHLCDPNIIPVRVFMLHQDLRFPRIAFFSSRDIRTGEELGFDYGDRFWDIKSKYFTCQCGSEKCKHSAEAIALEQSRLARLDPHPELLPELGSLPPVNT
UniProt O75376: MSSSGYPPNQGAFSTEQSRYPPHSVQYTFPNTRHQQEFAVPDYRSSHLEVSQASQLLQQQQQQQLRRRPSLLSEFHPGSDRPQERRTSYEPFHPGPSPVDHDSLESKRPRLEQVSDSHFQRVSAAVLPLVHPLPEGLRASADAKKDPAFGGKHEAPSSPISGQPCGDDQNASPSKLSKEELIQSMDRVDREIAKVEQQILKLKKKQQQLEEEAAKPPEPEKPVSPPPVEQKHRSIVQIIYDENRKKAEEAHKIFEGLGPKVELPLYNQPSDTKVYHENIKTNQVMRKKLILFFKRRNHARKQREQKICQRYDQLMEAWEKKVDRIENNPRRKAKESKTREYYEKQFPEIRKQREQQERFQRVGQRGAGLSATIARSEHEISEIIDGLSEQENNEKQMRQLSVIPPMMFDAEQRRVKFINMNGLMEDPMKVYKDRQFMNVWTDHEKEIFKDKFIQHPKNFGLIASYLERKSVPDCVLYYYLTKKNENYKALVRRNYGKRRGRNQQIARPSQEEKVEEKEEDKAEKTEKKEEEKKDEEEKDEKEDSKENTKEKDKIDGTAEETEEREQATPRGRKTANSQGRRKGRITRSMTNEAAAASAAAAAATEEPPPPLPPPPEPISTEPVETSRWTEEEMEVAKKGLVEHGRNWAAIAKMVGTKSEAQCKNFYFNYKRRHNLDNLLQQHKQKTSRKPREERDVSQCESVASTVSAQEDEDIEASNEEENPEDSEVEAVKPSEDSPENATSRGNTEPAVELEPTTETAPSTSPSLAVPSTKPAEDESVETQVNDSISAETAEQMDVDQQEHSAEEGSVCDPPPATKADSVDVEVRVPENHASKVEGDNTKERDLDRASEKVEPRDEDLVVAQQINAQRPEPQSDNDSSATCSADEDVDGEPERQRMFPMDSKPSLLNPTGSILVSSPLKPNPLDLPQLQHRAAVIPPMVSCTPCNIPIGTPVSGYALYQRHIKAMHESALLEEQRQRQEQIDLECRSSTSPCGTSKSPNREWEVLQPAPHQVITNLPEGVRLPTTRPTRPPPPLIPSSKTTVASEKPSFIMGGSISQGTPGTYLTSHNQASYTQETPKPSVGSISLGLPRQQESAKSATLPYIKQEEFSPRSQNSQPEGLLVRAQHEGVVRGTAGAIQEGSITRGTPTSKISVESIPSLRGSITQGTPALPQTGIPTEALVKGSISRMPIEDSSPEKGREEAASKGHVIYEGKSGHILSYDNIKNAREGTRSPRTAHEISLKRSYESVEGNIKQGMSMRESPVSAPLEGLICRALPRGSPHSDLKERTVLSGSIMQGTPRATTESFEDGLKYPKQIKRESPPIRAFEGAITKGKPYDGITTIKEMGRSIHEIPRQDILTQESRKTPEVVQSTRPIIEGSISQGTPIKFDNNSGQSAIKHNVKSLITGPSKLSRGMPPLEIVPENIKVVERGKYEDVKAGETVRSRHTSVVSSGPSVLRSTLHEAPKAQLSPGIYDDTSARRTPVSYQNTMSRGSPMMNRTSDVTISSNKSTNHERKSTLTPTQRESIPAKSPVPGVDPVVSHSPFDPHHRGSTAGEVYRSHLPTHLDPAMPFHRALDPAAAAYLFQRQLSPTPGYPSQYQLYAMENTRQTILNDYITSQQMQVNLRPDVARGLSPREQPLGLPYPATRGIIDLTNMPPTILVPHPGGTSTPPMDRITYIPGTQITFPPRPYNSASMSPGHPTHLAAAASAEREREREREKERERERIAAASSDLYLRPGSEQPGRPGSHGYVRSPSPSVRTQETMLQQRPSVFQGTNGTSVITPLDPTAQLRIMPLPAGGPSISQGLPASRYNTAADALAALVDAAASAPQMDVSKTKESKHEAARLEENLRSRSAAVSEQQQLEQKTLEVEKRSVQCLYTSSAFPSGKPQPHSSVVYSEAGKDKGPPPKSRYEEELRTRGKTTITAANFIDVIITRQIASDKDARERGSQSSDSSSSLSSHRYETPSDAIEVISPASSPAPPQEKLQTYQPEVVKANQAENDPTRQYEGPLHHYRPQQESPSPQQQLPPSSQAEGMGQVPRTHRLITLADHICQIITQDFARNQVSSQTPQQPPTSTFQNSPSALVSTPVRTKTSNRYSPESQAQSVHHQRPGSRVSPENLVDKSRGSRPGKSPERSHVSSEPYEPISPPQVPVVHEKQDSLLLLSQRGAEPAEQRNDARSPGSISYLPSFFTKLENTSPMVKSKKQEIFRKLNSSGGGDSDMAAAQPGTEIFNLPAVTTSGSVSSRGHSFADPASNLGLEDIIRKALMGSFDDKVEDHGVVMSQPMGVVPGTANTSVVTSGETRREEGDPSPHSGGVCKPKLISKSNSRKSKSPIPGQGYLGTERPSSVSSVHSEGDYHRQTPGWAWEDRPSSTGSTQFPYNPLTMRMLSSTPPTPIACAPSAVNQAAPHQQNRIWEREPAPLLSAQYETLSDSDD
UniProt Q9UKL0: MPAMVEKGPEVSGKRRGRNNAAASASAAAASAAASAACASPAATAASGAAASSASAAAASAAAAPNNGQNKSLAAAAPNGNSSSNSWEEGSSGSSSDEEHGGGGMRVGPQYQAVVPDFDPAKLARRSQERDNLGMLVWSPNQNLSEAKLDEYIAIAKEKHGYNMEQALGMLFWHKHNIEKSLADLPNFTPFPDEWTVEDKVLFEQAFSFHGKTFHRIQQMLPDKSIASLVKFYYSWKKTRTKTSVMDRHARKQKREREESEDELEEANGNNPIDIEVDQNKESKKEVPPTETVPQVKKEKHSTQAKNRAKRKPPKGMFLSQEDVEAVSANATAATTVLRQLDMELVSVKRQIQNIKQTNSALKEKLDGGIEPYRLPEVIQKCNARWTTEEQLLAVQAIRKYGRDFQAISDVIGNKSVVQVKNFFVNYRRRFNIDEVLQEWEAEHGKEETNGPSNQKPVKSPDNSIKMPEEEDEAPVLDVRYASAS

Tests used:
[1] = biological target: methyl CpG binding protein 2 (human (endogenous in lung fibroblasts of IPF patients)) (UniProt P51608); experiment: Re-ChIP (sequential chromatin immunoprecipitation); Re-ChIP-IT Express Kit; formaldehyde cross-linked, sonicated chromatin of confluent, 24 h serum-starved unstimulated F-IPFs; first immunoprecipitation with an antibody to one protein, eluted and desalted chromatin precipitated again with an antibody to the second; read-out: real-time PCR of COX-2 promoter DNA (-299/+6), normalized to input
[2] = biological target: embryonic ectoderm development protein (human (endogenous in lung fibroblasts of IPF patients)) (UniProt O75530); experiment: as above

“G9a (from UniProt Q96KQ7 1-1210) (enzyme)” was tested, and the binding [1] was “binds”.

With “nuclear receptor corepressor (from UniProt O75376 1-2440)” the binding [2] was “binds”.

In the case of “co-RE1-silencing transcription factor (from UniProt Q9UKL0 1-485)”, the binding [2] is reported as “binds” and the binding [1] is reported as “binds”.
